Measurements from patent publication US20090104633A1, “Kit for Highly Sensitive Detection Assays” (priority 2005, published 2009).
Marks after values point to notes of the source that are not given here.

How the values were obtained:
[1] = test system: Mouse anti-2,4-D monoclonal antibody clone E2/G2; test: Dot blot detection of hydrazide-labelled glycoprotein (porcine mucin) on nitrocellulose; type: binding; details: periodate-oxidized mucin; primary antibody clone E2/G2; AlexaFluor680 secondary antibody; mean ± SEM
[2] = test system: Mouse anti-2,4-D monoclonal antibody clone E4/C2; test: as above; type: binding; details: periodate-oxidized mucin; primary antibody clone E4/C2; AlexaFluor680 secondary antibody; mean ± SEM
[3] = test system: Mouse anti-2,4-D monoclonal antibody clone F6/C10; test: as above; type: binding; details: periodate-oxidized mucin; primary antibody clone F6/C10; AlexaFluor680 secondary antibody; mean ± SEM
[4] = test system: Mouse anti-2,4-D monoclonal antibody clone B7; test: as above; type: binding; details: periodate-oxidized mucin; primary antibody clone B7; AlexaFluor680 secondary antibody; mean ± SEM
[5] = test system: Mouse anti-2,4-D monoclonal antibody clone E2/G2; test: Dot blot detection of active ester-labelled ovalbumin on nitrocellulose; type: binding; details: ovalbumin conjugate; primary antibody clone E2/G2; AlexaFluor680 secondary antibody; mean ± SEM
[6] = test system: Mouse anti-2,4-D monoclonal antibody clone F6/C10; test: as above; type: binding; details: ovalbumin conjugate; primary antibody clone F6/C10; AlexaFluor680 secondary antibody; mean ± SEM
[7] = test system: Mouse anti-2,4-D monoclonal antibody clone B7; test: as above; type: binding; details: ovalbumin conjugate; primary antibody clone B7; AlexaFluor680 secondary antibody; mean ± SEM
[8] = test system: monoclonal anti-2,4-D antibody clone E2/G2; test: Detection of active ester-labelled insulin on PVDF filterplates (HRP/TMB); type: binding, mouse; details: for Detection limit of labelled protein: mean ± SEM; for Detection limit of label: insulin conjugate, converted from pg protein with labelling degree (Table 6)
[9] = test system: monoclonal anti-2,4-D antibody clone E4/C2; test: as above; type: binding, mouse; details: for Detection limit of labelled protein: mean ± SEM; for Detection limit of label: insulin conjugate, converted from pg protein with labelling degree (Table 6)
[10] = test system: monoclonal anti-2,4-D antibody clone F6/C10; test: as above; type: binding, mouse; details: for Detection limit of labelled protein: mean ± SEM; for Detection limit of label: insulin conjugate, converted from pg protein with labelling degree (Table 6)
[11] = test system: monoclonal anti-2,4-D antibody clone B7; test: as above; type: binding, mouse; details: for Detection limit of labelled protein: mean ± SEM; for Detection limit of label: insulin conjugate, converted from pg protein with labelling degree (Table 6)
[12] = test system: monoclonal antibody against DIG clone 1.17.256; test: as above; type: binding, mouse; details: anti-DIG clone 1.17.256
[13] = insulin conjugate on PVDF, HRP secondary antibody
[14] = insulin labelled with oligoethyleneglycol-containing active esters

Compound | Detection limit of proteins after labelling with hydrazide derivatives [1] | Detection limit of proteins after labelling with hydrazide derivatives [2] | Detection limit of proteins after labelling with hydrazide derivatives [3] | Detection limit of proteins after labelling with hydrazide derivatives [4] | Detection limit of proteins after labelling with active ester derivatives [5] | Detection limit of proteins after labelling with active ester derivatives [6] | Detection limit of proteins after labelling with active ester derivatives [7] | Detection limit of labelled protein [8, 13] | Detection limit of label [8] | Detection limit of labelled protein [9, 13] | Detection limit of label [9] | Detection limit of labelled protein [10, 13] | Detection limit of label [10] | Detection limit of labelled protein [11, 13] | Detection limit of label [11] | Detection limit of labelled protein [8, 14] | Detection limit of labelled protein [9, 14] | Detection limit of labelled protein [10, 14] | Detection limit of labelled protein [11, 14] | further results
NNC(=O)CCCCCCCCCCNC(=O)COc1ccc(Cl)cc1Cl [(4c), 11-(2-(2,4-dichlorophenoxy)acetylamino)-undecanoic acid-hydrazide] | 51.9 ± 13.8^(g) pg | 28.7 ± 9.4^(g) pg | 13.7 ± 1.3^(g) pg | 15.6 ± 0.0^(g) pg |  |  |  |  |  |  |  |  |  |  |  |  |  |  |  | 
NNC(=O)COc1ccc(Cl)cc1Cl [(1a), 2-(2,4-dichlorophenoxy)acetic acid-hydrazide] | 114.6 ± 10.4^ pg | 160.7 ± 23.1^ pg | 114.6 ± 10.4^ pg | 100.4 ± 28.5^(i) pg |  |  |  |  |  |  |  |  |  |  |  |  |  |  |  | 
O=C(COc1ccc(Cl)cc1Cl)NCCCCCCCCCCC(=O)ON1C(=O)CC(S(=O)(=O)[O-])C1=O.[Na+] (centres unmarked) [(3d), 11-(2-(2,4-dichlorophenoxy)acetylamino)-undecanoic acid-N-hydroxysulfosuccinimidyl-ester-sodium Salt] |  |  |  |  | 625.0 ± 125.0^(g) pg | 386.7 ± 110.5^(g) pg | 625.0 ± 178.9^(g) pg | 160.2 ± 25.6^(f) pg | 10.6 ± 1.7^(f) fMole | 10.9 ± 1.6^(f) pg | 0.7 ± 0.1^(f) fMole | 133.5 ± 27.0^(f) pg | 8.9 ± 1.8^(f) fMole | 113.4 ± 8.7^(f) pg | 7.5 ± 0.6^(f) fMole |  |  |  |  | 
(6-(2-(2,4-dichlorophenoxy)acetylamido)hexylamido)-PEG11-succinimidylester [(7b)] |  |  |  |  |  |  |  |  |  |  |  |  |  |  |  | 1,099.7 ± 307.5^(b) pg | 312.3 ± 58.0^(b) pg | 3,905.0 ± 1,381.2 pg | 2,541.5 ± 586.5^(b) pg | 
(6-(2-(2,4-dichlorophenoxy)acetylamido) undecanoylamido)-PEG11-succinimidylester [(7c)] |  |  |  |  |  |  |  |  |  |  |  |  |  |  |  | 68.8 ± 53.5^(b) pg | 45.8 ± 15.3^(b) pg | 366.1 ± 122.0 pg | 733.2 ± 244.4^(b) pg | 
C[C@]12CC[C@H](OCC(=O)NCCCCCC(=O)ON3C(=O)CCC3=O)C[C@H]1CC[C@@H]1[C@@H]2C[C@@H](O)[C@]2(C)[C@@H](C3=CC(=O)OC3)CC[C@]12O [DIG-C6-NHS, Digoxigenin-3-O-methylcarbonyl-ε-aminocaproyl-N-hydroxysuccinimide] |  |  |  |  |  |  |  |  |  |  |  |  |  |  |  |  |  |  |  | Detection limit of labelled protein ([12]; insulin conjugate on PVDF, HRP secondary antibody, mean ± SEM): 21,701.4 ± 3,129.8 pg; Detection limit of label ([12]; insulin conjugate, converted from pg protein with labelling degree (Table 6)): 5,677.5 ± 818.8 fMole
6-(2-(2,4-dichlorophenoxy)acetylamido)-PEG11-succinimidylester [(7a)] |  |  |  |  |  |  |  |  |  |  |  |  |  |  |  | 3,906.3 ± 0.3 pg | 732.9 ± 109.1 pg | 6,341.4 ± 3,120.3 pg | 6,508.8 ± 1,301.2 pg | 
NNC(=O)CCCCCNC(=O)COc1ccc(Cl)cc1Cl [(4a), 6-(2-(2,4-dichlorophenoxy)acetylamino)-hexanoic acid-hydrazide] | 24.8 ± 4.4^(e) pg | 25.1 ± 8.0^(e) pg | 2.7 ± 0.4^(h) pg | 10.9 ± 1.8^(h) pg |  |  |  |  |  |  |  |  |  |  |  |  |  |  |  | 
O=C(COc1ccc(Cl)cc1Cl)ON1C(=O)CCC1=O [(1b)] |  |  |  |  | 161.5 ± 41.3 pg | 236.3 ± 62.6 pg | 323.7 ± 65.7 pg | 197,916.7 ± 42,020.3 pg | 17,950.1 ± 3,811.0 fMole | 9,114.6 ± 1,210.1 pg | 826.7 ± 109.8^(g) fMole | 180,555.6 ± 21,960.3 pg | 16,375.5 ± 1,991.7 fMole | 173,611.1 ± 25,038.6 pg | 15,745.7 ± 2,270.8 fMole |  |  |  |  | 
O=C(COc1ccc(Cl)cc1Cl)NCCCCCC(=O)ON1C(=O)CC(S(=O)(=O)[O-])C1=O.[Na+] (centres unmarked) [(3b), 6-(2-(2,4-dichlorophenoxy)acetylamino)-hexanoic acid-N-hydroxysulfosuccinimidyl-ester-sodium Salt] |  |  |  |  | 388.4 ± 72.1 pg | 253.9 ± 60.4 pg | 352.7 ± 71.8 pg | 915.6 ± 61.0^(d) pg | 257.1 ± 17.1^(d) fMole | 42.0 ± 7.5^(d) pg | 11.8 ± 2.1^(d) fMole | 1,519.1 ± 456.3^(d) pg | 426.6 ± 128.1^(d) fMole | 1,464.9 ± 369.1^(d) pg | 411.4 ± 103.7^(d) fMole |  |  |  |  | 
